PMC8435287
Results are given in words; binding and its absence hold for the method and conditions named. In cells and extracts the contact can be indirect. These calls come from enrichment with a bait or labelling near it, and not all partners need be listed.

The chains behind the UniProt entries cited, without tags or fusion partners. Where a name states a change or a piece, a line headed by the entry shows the natural chain unless it says otherwise.
UniProt Q8I3T5: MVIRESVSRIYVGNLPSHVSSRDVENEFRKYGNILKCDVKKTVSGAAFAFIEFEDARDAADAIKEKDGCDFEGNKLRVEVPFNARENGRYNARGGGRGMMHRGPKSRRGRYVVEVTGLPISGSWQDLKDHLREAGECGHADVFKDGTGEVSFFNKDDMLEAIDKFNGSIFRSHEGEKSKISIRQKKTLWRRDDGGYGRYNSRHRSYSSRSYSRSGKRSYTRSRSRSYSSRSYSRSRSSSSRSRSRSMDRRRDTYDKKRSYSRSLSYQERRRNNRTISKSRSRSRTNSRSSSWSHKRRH

Molecular target: Halo-PfSR1 (P. falciparum SR1 fused with a Halo tag at the N-terminus) (P. falciparum) (UniProt Q8I3T5)
Experiment: affinity purification with mass spectrometry; Halo-PfSR1 from lysates of tightly synchronized early (20 hpi) and late (36 hpi) stage parasites captured on HaloLink resin overnight at 4°C (lysis: 50 mM Tris-HCl pH 7.5, 150 mM NaCl, 1% Triton X-100, 0.1% sodium deoxycholate); eluates analysed by LC-MS/MS; compared with a mock plasmid expressing only the Halo tag; hits enriched more than 8-fold or found only with Halo-PfSR1 in at least two replicates

B1: MCM4 (protein, UniProt Q9GR06 1-1005)
chain: MGTPRRRLGQQNNNNNSPFALSSSNIFGSNNEIFGSNFMHTPMSSRRTKNSKSFLNSMLNESRYLNQSNAGSQFIKYGHTPLAIRRIKCARADIGDVGREAFMEDEESGRLPHFIDSNLEQIKELFNQFFDEFNITNYSDVLDFTDEDRSISEYILLHRDNLKVYLAYYGWKMIKFIETGRQNECRLNNTNYEDDDENNENSEGIRNLEHIKSFEIDLTHIFFFNKKLYKLIIEYPSDCISEIDKIISTKYNSLLALVLEGDTRSSSSDKYPLSSTKQDYCRVRFFNKKHKDTPRKLGPNQIETLVCVKGVIIRCSNIIPEMTMAAFKCTSKKRIGVNNYEKCNEEVYEHVIQGEVQEPVTCSNCNNKNTFELWHNNCCFSSKQLIKLSEVTEHLKQGETPQSISIYAYDDLIDYTKPGDTVELTGILKASPVRLNPRSRCYNSVHRTYINVIHIKKENKQKMKLTEQNDTANIILKRNEDGTVEENFEKLNEQGNLLFTTEVIQKMEQLSKDPNIYQRLVDSIAPSIYGRGDIKKGLLCQLFGGSKITDKYNNKYRSEIHILLRGDPSTAKSQLLHYVHKLSPRGIYTSGKGSSSVGLTAFISKDSETKEYILESGAVVLSDKGICCIDEFDKMDDSARAILHEVMEQQTVTIAKAGIVATLNARTSILASANPINSRYDKNKAVVENINLPPSLFSRFDLIYLVIDQANEDEDRKLATVLCKNFSYNPEEEEDEDQEDQEEDEPNYITQQRARKSKGTSRKNERENYYNDGDNDDDDDISNYLNDSNDAQNKRGSWANVNISYDEYNNSSNKKTSKNYLIDSNTLALYIAYCRITCNPIISLESKKIIIEEYIKMRCKEGTKSPTASPRQLEGLVRLSQSLAKMKLKRVVSPEEANEAVRLMNIATFQSLIDPLSGRIDFDQVNLGQTSQHKKKSDLIKDIIMNALVLKNMTKDELLTHCHETIMNDPQHTTSMDRKSFEEAFYDLEKSQEITRLCSGLYKKK
binding: binds
